According to patent US20220143204A1:
No constants are given. Whether binding was seen depends on the method and setting. Binding calls can cover weak binding; strength is not graded here.

Biological target: PDGFRB ECD
Assay: competition ELISA on PDGFRB ECD: unconjugated competitor titrated against SP26P-IRDye800, fluorescence at 800 nm

B1: SP26P (VHH)
VHH: EVQLVESGGGLVQAGGSLRLSCAASGRSFSSSVMGWFRQTPGKEREFVAATRWTAASTHYADSVKGRFTISRDHAENAVFLQMNSLKPEDTAVYYCAAGNYLDTAQYRYNYWGQGTQVTVSS
- binding: binds
